PubChem BioAssay AID1259308, NCATS | 2017
Shown is one part, drawn at random, of about 59,000 deposited reagents. About 1,510 of them (2.6%) count as active. 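Calls use total luciferase alone and ignore viability, so some active siRNAs may act by altering cell number.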 Entries without a mark were called inactive. Further read-outs or replicates are left out here. No sequences are given here.

- Purpose: 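Genes whose loss raises luciferase production in HEK293 cells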 (primary screen)
- Cell system: human HEK293 embryonic kidney cells stably expressing firefly luciferase (HEK-CMV-Luc2-Hygro)
- Knock-down reagent: single siRNA against human genes, 0.8 pmol siRNA per well
- Timing: 72 h
- Measurement: 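Luciferase light (ONE-Glo) measured on one replicate plate set and viability (CellTiter-Glo) on the other, scaled to a negative control siRNA, with robust z-scores and luciferase per cell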
- Reading the numbers: total luciferase, z-score: higher = more reporter protein produced
- Hit rule: 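Active when the median/MAD z-score for overall luciferase is greater than 3; a gene was taken forward for validation with new siRNAs if at least two of its three siRNAs passed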
- Meaning of the calls: active = raised luciferase; inactive = no rise

TMC5 (transmembrane channel like 5) [SID160749567]
- total luciferase, z-score: 1.25

TMC5 (transmembrane channel like 5) [SID160749568]
- total luciferase, z-score: 0.604

TMC5 (transmembrane channel like 5) [SID160749569]
- total luciferase, z-score: 1.54

PCDHA4 (protocadherin alpha 4) [SID160744880]
- total luciferase, z-score: -0.134

PCDHA4 (protocadherin alpha 4) [SID160744881]
- total luciferase, z-score: 0.013

PCDHA4 (protocadherin alpha 4) [SID160744882]
- total luciferase, z-score: -0.349

MCM3AP [SID160721066]
- total luciferase, z-score: -0.911

MCM3AP [SID160721067]
- total luciferase, z-score: 0.194

MCM3AP [SID160721068]
- total luciferase, z-score: 1.57

IL20RA (interleukin 20 receptor subunit alpha) [SID160741472]
- total luciferase, z-score: 0.727

IL20RA (interleukin 20 receptor subunit alpha) [SID160741473]
- total luciferase, z-score: -0.812

IL20RA (interleukin 20 receptor subunit alpha) [SID160741474]
- total luciferase, z-score: -1.57

FLJ40288 (Putative uncharacterized protein FLJ40288) [SID160763763]
- total luciferase, z-score: 0.176

FLJ40288 (Putative uncharacterized protein FLJ40288) [SID160763764]
- total luciferase, z-score: -0.954

FLJ40288 (Putative uncharacterized protein FLJ40288) [SID160763766]
- total luciferase, z-score: 0.513

DVL3 (dishevelled segment polarity protein 3) [SID160730730]
- total luciferase, z-score: 0.791

DVL3 (dishevelled segment polarity protein 3) [SID160775143]
- total luciferase, z-score: -0.289

DVL3 (dishevelled segment polarity protein 3) [SID160775163]
- total luciferase, z-score: -2.07

PASD1 (PAS domain containing repressor 1) [SID160757657]
- total luciferase, z-score: 1.28

PASD1 (PAS domain containing repressor 1) [SID160757659]
- total luciferase, z-score: 0.0694

PASD1 (PAS domain containing repressor 1) [SID160757660]
- total luciferase, z-score: 0.222
